No constants are given. Whether binding was seen depends on the method and setting. For some of these results: In cells and extracts the contact can be indirect. Some results given as binding are weak or reduced against the parent protein; the word gives no strength. Sequences can lack the tags named with a protein.
Legend:
[1] = biological target: Human cRET(ECD)-Fc (human); assay: MSD plate assay, cRET(ECD)-Fc coated, streptavidin sulfo-tag detection
[2] = biological target: Human cRET(ECD)-Fc (human); assay: MSD plate assay, cRET(ECD)-Fc coated; biotinylated anti-6xHis mAb and streptavidin sulfo-tag
[3] = biological target: Human GFRAL(ECD)-Fc (human); assay: co-expression in HEK293 cells, co-purification on Protein A, SDS-PAGE

B1: His-GDF15(biotin)/GFRAL(ECD)-His complex (protein)
chain 1: HHHHHHGSGGARNGDHCPLGPGRCCRLHTVRASLEDLGWADWVLSPREVQVTMCIGACPSQFRAANMHAQIKTSLHRLKPDTVPAPCCVPASYNPMVLIQKTDTGVSLQTYDDLLAKDCHCI
chain 2: QTNNCTYLREQCLRDANGCKHAWRVMEDACNDSDPGDPCKMRNSSYCNLSIQYLVESNFQFKECLCTDDFYCTVNKLLGKKCINKSDNVKEDKFKWNLTTRSHHGFKGMWSCLEVAEACVGDVVCNAQLASYLKACSANGNPCDLKQCQAAIRFFYQNIPFNIAQMLAFCDCAQSDIPCQQSKEALHSKTCAVNMVPPPTCLSVIRSCQNDELCRRHYRTFQSKCWQRVTRKCHEDENCISTLSKQDLTCSGSDDCKAAYIDILGTVLQVQCTCRTITQSEESLCKIFQHMLHRKSCFNYPTLSNVKGMALYTRKHANKITLTGFHSPFNGEGSHHHHHH
modifications: biotinylated (site not stated)
- binding [1]: binds
- binding [2]: binds

B2: Human His-GDF15 (ligand)
chain: B1 chain 1
- binding [3]: binds

B3: His-GDF15(biotin)/GFRAL(D2D3)-App complex (protein)
chain 1: B1 chain 1
chain 2: GFKGMWSCLEVAEACVGDVVCNAQLASYLKACSANGNPCDLKQCQAAIRFFYQNIPFNIAQMLAFCDCAQSDIPCQQSKEALHSKTCAVNMVPPPTCLSVIRSCQNDELCRRHYRTFQSKCWQRVTRKCHEDENCISTLSKQDLTCSGSDDCKAAYIDILGTVLQVQCTCRTITQSEESLCKIFQHMLHRKSCFNYPTLSNVKGMALYTRKGSEFRHDS
modifications: biotinylated (site not stated)
- binding [1]: binds
